Source: publication PMC3833267
These are yes or no findings as the source states them, for the method shown. In cells and extracts the contact can be indirect. Some binding calls cover weakened binding; strength is not graded here.

Amino acid sequences for entries named in this document (tags omitted). A change or cut given only in a name is not applied to a line headed by its entry. Chains listed by the source or under a name are the forms on record and can include a tag or linker.
UniProt P40763: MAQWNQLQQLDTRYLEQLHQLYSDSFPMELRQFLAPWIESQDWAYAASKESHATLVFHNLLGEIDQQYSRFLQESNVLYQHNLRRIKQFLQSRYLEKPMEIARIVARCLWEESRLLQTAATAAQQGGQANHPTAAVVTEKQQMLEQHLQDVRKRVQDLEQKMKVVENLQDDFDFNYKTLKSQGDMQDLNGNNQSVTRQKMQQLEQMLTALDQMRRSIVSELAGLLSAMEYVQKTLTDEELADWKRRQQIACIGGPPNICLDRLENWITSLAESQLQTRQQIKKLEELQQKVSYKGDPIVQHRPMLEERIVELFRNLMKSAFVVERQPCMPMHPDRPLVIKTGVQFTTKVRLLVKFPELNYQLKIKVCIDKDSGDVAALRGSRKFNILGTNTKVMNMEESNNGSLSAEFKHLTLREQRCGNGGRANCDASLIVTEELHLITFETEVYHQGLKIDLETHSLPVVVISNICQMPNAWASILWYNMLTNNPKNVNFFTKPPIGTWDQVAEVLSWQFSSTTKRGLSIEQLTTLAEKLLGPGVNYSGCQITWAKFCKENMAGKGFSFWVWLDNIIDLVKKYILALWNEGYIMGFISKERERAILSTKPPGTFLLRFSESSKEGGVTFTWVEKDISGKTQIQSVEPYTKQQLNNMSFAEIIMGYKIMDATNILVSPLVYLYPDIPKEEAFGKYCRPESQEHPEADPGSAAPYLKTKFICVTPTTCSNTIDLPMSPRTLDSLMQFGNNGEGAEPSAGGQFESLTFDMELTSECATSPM
STAT3-YF-YFP (P40763, form named): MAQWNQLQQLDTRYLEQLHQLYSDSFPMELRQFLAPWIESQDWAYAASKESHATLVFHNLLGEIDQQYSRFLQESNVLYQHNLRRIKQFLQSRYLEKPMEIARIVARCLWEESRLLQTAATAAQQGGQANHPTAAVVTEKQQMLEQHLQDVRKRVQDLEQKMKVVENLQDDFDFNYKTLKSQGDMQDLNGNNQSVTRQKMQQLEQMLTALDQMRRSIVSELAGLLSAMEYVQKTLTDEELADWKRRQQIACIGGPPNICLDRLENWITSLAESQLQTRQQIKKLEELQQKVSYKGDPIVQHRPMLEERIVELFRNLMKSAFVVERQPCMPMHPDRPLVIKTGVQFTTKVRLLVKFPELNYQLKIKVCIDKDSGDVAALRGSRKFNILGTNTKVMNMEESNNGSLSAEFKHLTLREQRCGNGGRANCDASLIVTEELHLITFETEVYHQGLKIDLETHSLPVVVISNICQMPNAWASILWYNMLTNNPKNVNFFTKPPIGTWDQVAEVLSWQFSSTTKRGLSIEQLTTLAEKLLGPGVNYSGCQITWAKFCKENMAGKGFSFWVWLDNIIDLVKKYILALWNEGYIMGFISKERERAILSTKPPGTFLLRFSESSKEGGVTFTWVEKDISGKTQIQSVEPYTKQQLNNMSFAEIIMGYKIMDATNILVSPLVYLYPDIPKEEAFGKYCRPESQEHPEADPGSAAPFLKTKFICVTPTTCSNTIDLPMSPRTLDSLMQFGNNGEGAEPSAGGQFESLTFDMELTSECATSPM

Molecular target: T1, biotinylated gp130-receptor-peptide containing phosphotyrosine 767
T1 sequence (peptide, phosphotyrosine at 767; beta-alanine between biotin and the N-terminus): TVVHSGYRHQVPSV
Assay: pull-down; peptide-precipitation: biotinylated gp130 pY767 peptide (3 nmol) on NeutrAvidin agarose, incubated with 250 ug lysate of transfected HEKgp80 cells (IL-6 20 ng/ml 30 min or unstimulated) over night at 4°C in storage buffer (150 mM NaCl, 50 mM Tris-HCl pH 7.5, 0.1 mM EDTA, 10% glycerin, 0.5% Nonidet P40); immunoblot with STAT3 antibody; only the target purified

binding	Substance
binds	STAT3-YFP (from UniProt P40763 1-770)
binds	STAT3-YF-YFP (from UniProt P40763 1-770)
